Source: PubChem BioAssay AID743454 (Peter MacCallum Cancer Centre, 2014)

Assay: 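Search for knock-downs that restore vorinostat killing in resistant colon cancer cells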 (primary screen)
Cells: human HCT116-VR colon cancer cells, selected for vorinostat resistance
Reagents: siRNA pool against human genes, 40 nM siRNA pool
Time to read-out: vorinostat for 24 h, read-out about 72 h after transfection
Challenge: vorinostat at 2.5 µM final
Measurement: 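Cell viability by CellTiter-Fluor and caspase 3/7 activity by luminescence, each scaled to mock wells per plate, duplicates averaged, then robust z-scored over all plates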
Direction: viability robust z-score: higher = more viable cells than screen typical; caspase robust z-score: higher = more caspase 3/7 activity than screen typical
Rule for the call: 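Hits are knock-downs in viability class RV1/RV2 or caspase class CA1/CA2, excluding ones that killed cells in the no-drug cell-count arm; hits then retested with single siRNAs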
This is a random part of about 18,000 reagents. Over the whole deposit, 450 (2.5%) are marked active. 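Single biological run; no consistent viability z cut-off exists, so the class columns, not z-scores, define the calls.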 Entries without a mark were called inactive.

How did the screen score PCDHB3?
viability hit class: no change; caspase hit class: no change; viability robust z-score: -0.14; caspase robust z-score: 0.01

How did the screen score SSPN?
viability hit class: no change; caspase hit class: no change; viability robust z-score: -1.42; caspase robust z-score: 3.83

What did the screen give for TMEM115?
viability hit class: no change; caspase hit class: no change; viability robust z-score: -1.75; caspase robust z-score: 1.62

With RASL10B, how do the results read?
viability hit class: no change; caspase hit class: no change; viability robust z-score: -3.4; caspase robust z-score: 2.28

What is on record for NUDCD3?
viability hit class: no change; caspase hit class: no change; viability robust z-score: 0.31; caspase robust z-score: -0.86

With CLDN4, what was measured?
viability hit class: no change; caspase hit class: no change; viability robust z-score: 0.14; caspase robust z-score: 0.26

With KCNC1, what was measured?
viability hit class: no change; caspase hit class: no change; viability robust z-score: -0.12; caspase robust z-score: 0.97

For CDK19, what was measured?
viability hit class: no change; caspase hit class: no change; viability robust z-score: -0.34; caspase robust z-score: -0.8

For RNASET2, what was measured?
viability hit class: no change; caspase hit class: no change; viability robust z-score: 1.21; caspase robust z-score: -0.14

Which result is listed for SMYD1?
viability hit class: no change; caspase hit class: no change; viability robust z-score: -0.84; caspase robust z-score: -0.18

Which result is listed for NCOA2?
viability hit class: no change; caspase hit class: no change; viability robust z-score: 0.78; caspase robust z-score: 0.1

What is on record for ZNF689?
viability hit class: no change; caspase hit class: no change; viability robust z-score: 0.83; caspase robust z-score: 2.45

How did the screen score SRF?
viability hit class: no change; caspase hit class: no change; viability robust z-score: 0.29; caspase robust z-score: 1.33

Which result is listed for TNFSF12-TNFSF13?
viability hit class: no change; caspase hit class: no change; viability robust z-score: 0.65; caspase robust z-score: -0.9

With MAP6D1, how do the results read?
viability hit class: no change; caspase hit class: no change; viability robust z-score: -0.12; caspase robust z-score: -0.09

For PRICKLE3, how do the results read?
viability hit class: no change; caspase hit class: no change; viability robust z-score: 1.33; caspase robust z-score: 2.08

For C9orf50, what was measured?
viability hit class: no change; caspase hit class: no change; viability robust z-score: 1.14; caspase robust z-score: 2.8

With PPP1R11, what does the deposit list?
viability hit class: no change; caspase hit class: no change; viability robust z-score: 1.21; caspase robust z-score: 0.34

What is on record for ADPRS?
viability hit class: no change; caspase hit class: no change; viability robust z-score: 1.12; caspase robust z-score: 0.72

Which result is listed for CHST15?
viability hit class: no change; caspase hit class: no change; viability robust z-score: 0.63; caspase robust z-score: 0.72

For TUBE1, what was measured?
viability hit class: no change; caspase hit class: no change; viability robust z-score: -0.05; caspase robust z-score: -1.08
